In doi:10.1101/2025.02.27.640530:
These are yes or no findings as the source states them, for the method shown. Binding seen in cells or lysates may run through a third protein. Some results given as binding are weak or reduced against the parent protein; the word gives no strength. Tags and fused reporters may be left off the sequences shown.

Amino acid sequences for entries named in this document (tags omitted).
UniProt Q14999: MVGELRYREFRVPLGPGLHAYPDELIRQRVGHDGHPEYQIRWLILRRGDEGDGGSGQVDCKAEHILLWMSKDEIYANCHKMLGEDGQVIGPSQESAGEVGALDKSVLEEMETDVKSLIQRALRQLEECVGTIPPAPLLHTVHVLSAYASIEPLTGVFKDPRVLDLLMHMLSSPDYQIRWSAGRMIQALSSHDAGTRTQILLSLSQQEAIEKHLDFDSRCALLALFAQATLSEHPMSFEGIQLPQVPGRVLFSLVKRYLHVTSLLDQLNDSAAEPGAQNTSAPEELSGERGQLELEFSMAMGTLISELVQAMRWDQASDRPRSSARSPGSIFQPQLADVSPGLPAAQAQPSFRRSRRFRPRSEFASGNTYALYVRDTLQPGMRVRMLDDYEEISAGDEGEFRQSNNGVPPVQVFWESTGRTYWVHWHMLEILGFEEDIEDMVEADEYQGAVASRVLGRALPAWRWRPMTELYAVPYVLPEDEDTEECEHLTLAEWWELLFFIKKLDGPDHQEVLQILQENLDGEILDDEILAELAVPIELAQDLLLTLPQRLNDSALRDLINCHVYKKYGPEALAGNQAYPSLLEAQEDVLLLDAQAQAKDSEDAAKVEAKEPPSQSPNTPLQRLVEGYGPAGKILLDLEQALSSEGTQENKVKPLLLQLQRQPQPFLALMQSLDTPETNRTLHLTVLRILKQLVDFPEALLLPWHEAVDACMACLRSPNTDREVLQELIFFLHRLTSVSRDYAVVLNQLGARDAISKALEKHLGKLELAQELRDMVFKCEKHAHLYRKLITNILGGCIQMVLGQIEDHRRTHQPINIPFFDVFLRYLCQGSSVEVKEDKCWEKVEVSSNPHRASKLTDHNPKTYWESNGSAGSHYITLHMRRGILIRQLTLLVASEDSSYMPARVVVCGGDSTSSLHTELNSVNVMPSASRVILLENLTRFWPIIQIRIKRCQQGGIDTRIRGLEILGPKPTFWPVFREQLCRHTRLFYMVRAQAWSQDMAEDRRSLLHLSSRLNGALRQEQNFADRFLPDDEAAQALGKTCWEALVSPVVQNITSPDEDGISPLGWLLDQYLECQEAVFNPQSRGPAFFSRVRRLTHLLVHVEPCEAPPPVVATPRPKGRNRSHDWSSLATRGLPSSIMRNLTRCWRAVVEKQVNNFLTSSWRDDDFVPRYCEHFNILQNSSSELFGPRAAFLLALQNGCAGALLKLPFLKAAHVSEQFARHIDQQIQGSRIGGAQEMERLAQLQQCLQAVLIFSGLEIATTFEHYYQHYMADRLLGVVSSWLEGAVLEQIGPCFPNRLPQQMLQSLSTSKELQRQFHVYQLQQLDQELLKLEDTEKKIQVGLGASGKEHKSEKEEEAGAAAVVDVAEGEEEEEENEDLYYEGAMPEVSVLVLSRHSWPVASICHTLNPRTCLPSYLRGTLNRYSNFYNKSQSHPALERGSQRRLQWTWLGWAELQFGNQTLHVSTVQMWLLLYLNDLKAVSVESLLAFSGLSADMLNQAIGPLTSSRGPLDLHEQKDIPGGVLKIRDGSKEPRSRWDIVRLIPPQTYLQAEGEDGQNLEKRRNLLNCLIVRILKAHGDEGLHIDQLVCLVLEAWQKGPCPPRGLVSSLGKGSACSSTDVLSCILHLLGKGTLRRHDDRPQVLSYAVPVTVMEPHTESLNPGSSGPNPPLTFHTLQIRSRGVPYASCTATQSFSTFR
UniProt P63208: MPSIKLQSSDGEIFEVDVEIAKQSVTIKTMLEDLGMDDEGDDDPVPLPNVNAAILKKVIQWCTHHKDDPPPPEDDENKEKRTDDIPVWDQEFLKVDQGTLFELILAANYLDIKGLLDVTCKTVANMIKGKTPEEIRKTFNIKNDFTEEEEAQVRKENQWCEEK

Biological target: T1, FLAG-tagged NUMB (UniProt P49757)
T1 sequence: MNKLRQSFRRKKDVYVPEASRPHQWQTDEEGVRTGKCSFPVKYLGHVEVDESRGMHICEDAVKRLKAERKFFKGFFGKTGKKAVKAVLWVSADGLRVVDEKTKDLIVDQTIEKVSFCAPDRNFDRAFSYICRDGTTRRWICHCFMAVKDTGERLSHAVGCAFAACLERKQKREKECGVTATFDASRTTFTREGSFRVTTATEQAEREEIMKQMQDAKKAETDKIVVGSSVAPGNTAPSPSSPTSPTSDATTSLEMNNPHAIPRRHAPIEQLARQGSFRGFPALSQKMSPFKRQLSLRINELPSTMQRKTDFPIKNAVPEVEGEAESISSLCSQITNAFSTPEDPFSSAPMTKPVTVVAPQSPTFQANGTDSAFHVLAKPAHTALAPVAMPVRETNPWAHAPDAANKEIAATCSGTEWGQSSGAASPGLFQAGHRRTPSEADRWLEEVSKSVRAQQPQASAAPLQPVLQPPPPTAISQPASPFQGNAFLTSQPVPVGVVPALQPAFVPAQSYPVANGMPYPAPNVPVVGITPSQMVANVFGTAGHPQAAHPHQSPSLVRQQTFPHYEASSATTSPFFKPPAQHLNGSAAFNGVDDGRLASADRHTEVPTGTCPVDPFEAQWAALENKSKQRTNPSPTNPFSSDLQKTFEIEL
Assay: co-IP

| binding | Substance |
| --- | --- |
| binds | CUL7 (from UniProt Q14999 1-1698) |
| binds | SKP1 (from UniProt P63208 1-163) |
